Results: patent publication US10799474B2, “Method of treating leukemia utilizing somatic cell reprogramming” (priority 2016, dated 2020)
For at least one compound, name, drawing or mass did not settle the structure.

System: mouse acute myeloid leukemic cells (MLL-AF9) from OSKM mice
Test: Elimination of leukemic cells in-vivo, MLL-AF9 AML model, OSKM expression activated by Dox
Conditions: Dox in drinking water 1-4 days; flow cytometry; compared to mature leukemic cells; FIGS. 3A, 3B

Q: For `C[C@H]1c2cccc(O)c2C(=O)C2=C(O)[C@]3(O)C(=O)C(C(N)=O)=C(O)[C@@H](N(C)C)[C@@H]3[C@@H](O)[C@@H]21` [Dox, doxycycline], which “ratio and number of leukemic stem cells in spleen and bone marrow” value is on record?
A: elimination of the leukemic stem cells was more rapid
